Source: article PMC9019020, “Low complexity RGG-motif sequence is required for Processing body (P-body) disassembly” (Nature Communications, 2022)
Results are given in words; binding and its absence hold for the method and conditions named. Sequences can lack the tags named with a protein.

B1: His-Sbp1-FLAG (natural protein, S. cerevisiae, UniProt P10080 1-294, looked up)
chain: MSAEIEEATNAVNNLSINDSEQQPRAPTHKTVIDPEDTIFIGNVAHECTEDDLKQLFVEEFGDEVSVEIPIKEHTDGHIPASKHALVKFPTKIDFDNIKENYDTKVVKDREIHIKRARTPGQMQRGGFRGRGGFRGRGGFRGGFRGGYRGGFRGRGNFRGRGGARGGFNGQKREKIPLDQMERSKDTLYINNVPFKATKEEVAEFFGTDADSISLPMRKMRDQHTGRIFTSDSANRGMAFVTFSGENVDIEAKAEEFKGKVFGDRELTVDVAVIRPENDEEEIEQETGSEEKQE
notes: Sbp1, RGG-motif containing translation repressor of S. cerevisiae; wild type; also called wild-type Sbp1; purified Sbp1; source: E. coli BL21, purified (Ni-NTA agarose, batch; RNase A added during purification); not shown: His, N-terminal, kept; FLAG, C-terminal, kept

Tests used:
His-Edc3-mCherry = molecular target: T1, His-Edc3-mCherry (S. cerevisiae, UniProt P39998 1-551); assay: condition: 100 pmol of each of the purified proteins; pull-down; RFP magnetic agarose beads (Chromotek) capture Edc3-mCherry; 100 pmol of each purified protein; 4 °C, 2 h; 50 mM HEPES pH 7, 100 mM NaCl, 1 mM DTT, 2 mM MnCl2, 2 mM MgCl2, 1% Triton-X100, 10% glycerol, 0.25 mg/mL RNase A; western blot; both purified
T1 construct: Edc3, P-body protein of S. cerevisiae with Lsm, FDF and YjeF-N domains; full length; also called full-length Edc3; purified Edc3; source: E. coli BL21, purified (Ni-NTA agarose, batch; RNase A added during purification); not shown: His, N-terminal, kept; mCherry, C-terminal, kept
T1 sequence (looked up): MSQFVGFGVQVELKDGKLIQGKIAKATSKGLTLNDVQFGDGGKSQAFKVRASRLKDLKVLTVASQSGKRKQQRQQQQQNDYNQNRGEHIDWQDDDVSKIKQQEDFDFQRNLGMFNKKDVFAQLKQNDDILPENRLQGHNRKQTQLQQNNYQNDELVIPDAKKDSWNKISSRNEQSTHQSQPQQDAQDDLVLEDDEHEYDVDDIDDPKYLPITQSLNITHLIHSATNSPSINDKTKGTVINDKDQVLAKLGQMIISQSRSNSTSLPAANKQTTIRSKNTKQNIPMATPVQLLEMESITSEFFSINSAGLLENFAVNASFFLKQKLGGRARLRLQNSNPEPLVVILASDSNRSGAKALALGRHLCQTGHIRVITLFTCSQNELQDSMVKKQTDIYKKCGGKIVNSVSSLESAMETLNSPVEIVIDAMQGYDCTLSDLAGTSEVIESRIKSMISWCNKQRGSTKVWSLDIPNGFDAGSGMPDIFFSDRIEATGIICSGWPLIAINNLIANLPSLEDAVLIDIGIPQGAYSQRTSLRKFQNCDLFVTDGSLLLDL

[1] = molecular target: GST-tagged Edc3 FDF domain (S. cerevisiae); assay: condition: 200 pmol of each of the purified proteins; pull-down; GST-tagged Edc3 fragments immobilised on glutathione sepharose beads, purified Sbp1 added; 200 pmol of each protein; 4 °C, 2 h; 50 mM HEPES pH 7, 100 mM NaCl, 1 mM DTT, 2 mM MnCl2, 2 mM MgCl2, 1% Triton-X100, 10% glycerol, 0.25 mg/mL RNase A, 10 mg/mL BSA; western blot; both purified

Molecule	binding (His-Edc3-mCherry)	binding [1]
His-Sbp1ΔRGG-FLAG (from UniProt P10080)	no binding	–
B1	–	no binding
